This note sets out measurements from patent publication US20240123070A1, “EPITOPE PEPTIDE OF RAS G13D MUTANT AND T CELL RECEPTOR RECOGNIZING RAS G13D MUTANT” (SHANGHAI GENBASE BIOTECHNOLOGY CO., LTD., priority 2021, published 2024).

B1: β95Q-Y: B8.2.4 TCR point mutant, Vβ-CDR3 95Q to Y; CDR3β ASSYTVPPQH (protein)
TCR alpha: AQKITQTQPGMFVQEKEAVTLDCTYDTSDPSYGLFWYKQPSSGEMIFLIYQGSYDQQNATEGRYSLNFQKARKSANLVISASQLGDSAMYFCAMRERTGTASKLTFGTGTRLQVTLDIQNPEPAVYQLKDPRSQDSTLCLFTDFDSQINVPKTMESGTFITDKTVLDMKAMDSKSNGAIAWSNQTSFTCQDIFKETNATYPSSDVPCDATLTEKSFETDMNLNFQNLSVMGLRILLLKVAGFNLLMTLRLWSS
TCR beta: DVKVTQSSRYLVKRTGEKVFLECVQDMDHENMFWYRQDPGLGLRLIYFSYDVKMKEKGDIPEGYSVSREKKERFSLILESASTNQTSMYLCASSYTVPPQHFGDGTRLSILEDLRNVTPPKVSLFEPSKAEIANKQKATLVCLARGFFPDHVELSWWVNGKEVHSGVSTDPQAYKESNYSYCLSSRLRVSATFWHNPRNHFRCQVQFHGLSEEDKWPEGSPKPVTQNISAEAWGRADCGITSASYQQGVLSATILYEILLGKATLYAVLVSTLVVMAMVKRKNS
B2: β96T-I: B8.2.4 TCR point mutant, Vβ-CDR3 96T to I (protein)
TCR alpha: AQKITQTQPGMFVQEKEAVTLDCTYDTSDPSYGLFWYKQPSSGEMIFLIYQGSYDQQNATEGRYSLNFQKARKSANLVISASQLGDSAMYFCAMRERTGTASKLTFGTGTRLQVTLDIQNPEPAVYQLKDPRSQDSTLCLFTDFDSQINVPKTMESGTFITDKTVLDMKAMDSKSNGAIAWSNQTSFTCQDIFKETNATYPSSDVPCDATLTEKSFETDMNLNFQNLSVMGLRILLLKVAGFNLLMTLRLWSS
TCR beta: DVKVTQSSRYLVKRTGEKVFLECVQDMDHENMFWYRQDPGLGLRLIYFSYDVKMKEKGDIPEGYSVSREKKERFSLILESASTNQTSMYLCASSQIVPPQHFGDGTRLSILEDLRNVTPPKVSLFEPSKAEIANKQKATLVCLARGFFPDHVELSWWVNGKEVHSGVSTDPQAYKESNYSYCLSSRLRVSATFWHNPRNHFRCQVQFHGLSEEDKWPEGSPKPVTQNISAEAWGRADCGITSASYQQGVLSATILYEILLGKATLYAVLVSTLVVMAMVKRKNS
B3: β96T-C: B8.2.4 TCR point mutant, Vβ-CDR3 96T to C; CDR3β ASSQCVPPQH (protein)
TCR alpha: AQKITQTQPGMFVQEKEAVTLDCTYDTSDPSYGLFWYKQPSSGEMIFLIYQGSYDQQNATEGRYSLNFQKARKSANLVISASQLGDSAMYFCAMRERTGTASKLTFGTGTRLQVTLDIQNPEPAVYQLKDPRSQDSTLCLFTDFDSQINVPKTMESGTFITDKTVLDMKAMDSKSNGAIAWSNQTSFTCQDIFKETNATYPSSDVPCDATLTEKSFETDMNLNFQNLSVMGLRILLLKVAGFNLLMTLRLWSS
TCR beta: DVKVTQSSRYLVKRTGEKVFLECVQDMDHENMFWYRQDPGLGLRLIYFSYDVKMKEKGDIPEGYSVSREKKERFSLILESASTNQTSMYLCASSQCVPPQHFGDGTRLSILEDLRNVTPPKVSLFEPSKAEIANKQKATLVCLARGFFPDHVELSWWVNGKEVHSGVSTDPQAYKESNYSYCLSSRLRVSATFWHNPRNHFRCQVQFHGLSEEDKWPEGSPKPVTQNISAEAWGRADCGITSASYQQGVLSATILYEILLGKATLYAVLVSTLVVMAMVKRKNS
B4: β96T-D: B8.2.4 TCR point mutant, Vβ-CDR3 96T to D (protein)
TCR alpha: AQKITQTQPGMFVQEKEAVTLDCTYDTSDPSYGLFWYKQPSSGEMIFLIYQGSYDQQNATEGRYSLNFQKARKSANLVISASQLGDSAMYFCAMRERTGTASKLTFGTGTRLQVTLDIQNPEPAVYQLKDPRSQDSTLCLFTDFDSQINVPKTMESGTFITDKTVLDMKAMDSKSNGAIAWSNQTSFTCQDIFKETNATYPSSDVPCDATLTEKSFETDMNLNFQNLSVMGLRILLLKVAGFNLLMTLRLWSS
TCR beta: DVKVTQSSRYLVKRTGEKVFLECVQDMDHENMFWYRQDPGLGLRLIYFSYDVKMKEKGDIPEGYSVSREKKERFSLILESASTNQTSMYLCASSQDVPPQHFGDGTRLSILEDLRNVTPPKVSLFEPSKAEIANKQKATLVCLARGFFPDHVELSWWVNGKEVHSGVSTDPQAYKESNYSYCLSSRLRVSATFWHNPRNHFRCQVQFHGLSEEDKWPEGSPKPVTQNISAEAWGRADCGITSASYQQGVLSATILYEILLGKATLYAVLVSTLVVMAMVKRKNS
B5: β96T-K: B8.2.4 TCR point mutant, Vβ-CDR3 96T to K; CDR3β ASSQKVPPQH (protein)
TCR alpha: AQKITQTQPGMFVQEKEAVTLDCTYDTSDPSYGLFWYKQPSSGEMIFLIYQGSYDQQNATEGRYSLNFQKARKSANLVISASQLGDSAMYFCAMRERTGTASKLTFGTGTRLQVTLDIQNPEPAVYQLKDPRSQDSTLCLFTDFDSQINVPKTMESGTFITDKTVLDMKAMDSKSNGAIAWSNQTSFTCQDIFKETNATYPSSDVPCDATLTEKSFETDMNLNFQNLSVMGLRILLLKVAGFNLLMTLRLWSS
TCR beta: DVKVTQSSRYLVKRTGEKVFLECVQDMDHENMFWYRQDPGLGLRLIYFSYDVKMKEKGDIPEGYSVSREKKERFSLILESASTNQTSMYLCASSQKVPPQHFGDGTRLSILEDLRNVTPPKVSLFEPSKAEIANKQKATLVCLARGFFPDHVELSWWVNGKEVHSGVSTDPQAYKESNYSYCLSSRLRVSATFWHNPRNHFRCQVQFHGLSEEDKWPEGSPKPVTQNISAEAWGRADCGITSASYQQGVLSATILYEILLGKATLYAVLVSTLVVMAMVKRKNS
B6: β96T-A: B8.2.4 TCR point mutant, Vβ-CDR3 96T to A; CDR3β ASSQAVPPQH (protein)
TCR alpha: AQKITQTQPGMFVQEKEAVTLDCTYDTSDPSYGLFWYKQPSSGEMIFLIYQGSYDQQNATEGRYSLNFQKARKSANLVISASQLGDSAMYFCAMRERTGTASKLTFGTGTRLQVTLDIQNPEPAVYQLKDPRSQDSTLCLFTDFDSQINVPKTMESGTFITDKTVLDMKAMDSKSNGAIAWSNQTSFTCQDIFKETNATYPSSDVPCDATLTEKSFETDMNLNFQNLSVMGLRILLLKVAGFNLLMTLRLWSS
TCR beta: DVKVTQSSRYLVKRTGEKVFLECVQDMDHENMFWYRQDPGLGLRLIYFSYDVKMKEKGDIPEGYSVSREKKERFSLILESASTNQTSMYLCASSQAVPPQHFGDGTRLSILEDLRNVTPPKVSLFEPSKAEIANKQKATLVCLARGFFPDHVELSWWVNGKEVHSGVSTDPQAYKESNYSYCLSSRLRVSATFWHNPRNHFRCQVQFHGLSEEDKWPEGSPKPVTQNISAEAWGRADCGITSASYQQGVLSATILYEILLGKATLYAVLVSTLVVMAMVKRKNS
B7: β96T-G: B8.2.4 TCR point mutant, Vβ-CDR3 96T to G (protein)
TCR alpha: AQKITQTQPGMFVQEKEAVTLDCTYDTSDPSYGLFWYKQPSSGEMIFLIYQGSYDQQNATEGRYSLNFQKARKSANLVISASQLGDSAMYFCAMRERTGTASKLTFGTGTRLQVTLDIQNPEPAVYQLKDPRSQDSTLCLFTDFDSQINVPKTMESGTFITDKTVLDMKAMDSKSNGAIAWSNQTSFTCQDIFKETNATYPSSDVPCDATLTEKSFETDMNLNFQNLSVMGLRILLLKVAGFNLLMTLRLWSS
TCR beta: DVKVTQSSRYLVKRTGEKVFLECVQDMDHENMFWYRQDPGLGLRLIYFSYDVKMKEKGDIPEGYSVSREKKERFSLILESASTNQTSMYLCASSQGVPPQHFGDGTRLSILEDLRNVTPPKVSLFEPSKAEIANKQKATLVCLARGFFPDHVELSWWVNGKEVHSGVSTDPQAYKESNYSYCLSSRLRVSATFWHNPRNHFRCQVQFHGLSEEDKWPEGSPKPVTQNISAEAWGRADCGITSASYQQGVLSATILYEILLGKATLYAVLVSTLVVMAMVKRKNS
B8: β96T-H: B8.2.4 TCR point mutant, Vβ-CDR3 96T to H; CDR3β ASSQHVPPQH (protein)
TCR alpha: AQKITQTQPGMFVQEKEAVTLDCTYDTSDPSYGLFWYKQPSSGEMIFLIYQGSYDQQNATEGRYSLNFQKARKSANLVISASQLGDSAMYFCAMRERTGTASKLTFGTGTRLQVTLDIQNPEPAVYQLKDPRSQDSTLCLFTDFDSQINVPKTMESGTFITDKTVLDMKAMDSKSNGAIAWSNQTSFTCQDIFKETNATYPSSDVPCDATLTEKSFETDMNLNFQNLSVMGLRILLLKVAGFNLLMTLRLWSS
TCR beta: DVKVTQSSRYLVKRTGEKVFLECVQDMDHENMFWYRQDPGLGLRLIYFSYDVKMKEKGDIPEGYSVSREKKERFSLILESASTNQTSMYLCASSQHVPPQHFGDGTRLSILEDLRNVTPPKVSLFEPSKAEIANKQKATLVCLARGFFPDHVELSWWVNGKEVHSGVSTDPQAYKESNYSYCLSSRLRVSATFWHNPRNHFRCQVQFHGLSEEDKWPEGSPKPVTQNISAEAWGRADCGITSASYQQGVLSATILYEILLGKATLYAVLVSTLVVMAMVKRKNS
B9: β96T-E: B8.2.4 TCR point mutant, Vβ-CDR3 96T to E (protein)
TCR alpha: AQKITQTQPGMFVQEKEAVTLDCTYDTSDPSYGLFWYKQPSSGEMIFLIYQGSYDQQNATEGRYSLNFQKARKSANLVISASQLGDSAMYFCAMRERTGTASKLTFGTGTRLQVTLDIQNPEPAVYQLKDPRSQDSTLCLFTDFDSQINVPKTMESGTFITDKTVLDMKAMDSKSNGAIAWSNQTSFTCQDIFKETNATYPSSDVPCDATLTEKSFETDMNLNFQNLSVMGLRILLLKVAGFNLLMTLRLWSS
TCR beta: DVKVTQSSRYLVKRTGEKVFLECVQDMDHENMFWYRQDPGLGLRLIYFSYDVKMKEKGDIPEGYSVSREKKERFSLILESASTNQTSMYLCASSQEVPPQHFGDGTRLSILEDLRNVTPPKVSLFEPSKAEIANKQKATLVCLARGFFPDHVELSWWVNGKEVHSGVSTDPQAYKESNYSYCLSSRLRVSATFWHNPRNHFRCQVQFHGLSEEDKWPEGSPKPVTQNISAEAWGRADCGITSASYQQGVLSATILYEILLGKATLYAVLVSTLVVMAMVKRKNS
B10: β96T-F: B8.2.4 TCR point mutant, Vβ-CDR3 96T to F (protein)
TCR alpha: AQKITQTQPGMFVQEKEAVTLDCTYDTSDPSYGLFWYKQPSSGEMIFLIYQGSYDQQNATEGRYSLNFQKARKSANLVISASQLGDSAMYFCAMRERTGTASKLTFGTGTRLQVTLDIQNPEPAVYQLKDPRSQDSTLCLFTDFDSQINVPKTMESGTFITDKTVLDMKAMDSKSNGAIAWSNQTSFTCQDIFKETNATYPSSDVPCDATLTEKSFETDMNLNFQNLSVMGLRILLLKVAGFNLLMTLRLWSS
TCR beta: DVKVTQSSRYLVKRTGEKVFLECVQDMDHENMFWYRQDPGLGLRLIYFSYDVKMKEKGDIPEGYSVSREKKERFSLILESASTNQTSMYLCASSQFVPPQHFGDGTRLSILEDLRNVTPPKVSLFEPSKAEIANKQKATLVCLARGFFPDHVELSWWVNGKEVHSGVSTDPQAYKESNYSYCLSSRLRVSATFWHNPRNHFRCQVQFHGLSEEDKWPEGSPKPVTQNISAEAWGRADCGITSASYQQGVLSATILYEILLGKATLYAVLVSTLVVMAMVKRKNS

The data set relates to murine TCRβ constant region. The experiment in a line: mTCRβ expression detection on Jurkat-NFAT-Luc cells. In kind it is cell-based. Conditions: TCR mutant transduced Jurkat-NFAT-Luc cells.
Turning to B1, the mTCRβ % stood at 78.4%.

In the case of B2, the mTCRβ % amounted to 64.6%.

As for B3, the mTCRβ % amounted to 82.3%.

In the case of B4, the mTCRβ % worked out at 73.8%.

B5 showed a mTCRβ % of 72%.

B6: the mTCRβ % came to 76.4%.

B7 showed a mTCRβ % of 55.3%.

In turn, B8 registered a mTCRβ % of 76.2%.

With B9, the mTCRβ % is 73.8%.

B10 had a mTCRβ % of 76.9%.
